Measurements from the supplement of paper PMC10849652.
The list shows a part of the results.

Chains of the proteins cited; added tags and fusions are not shown. Lines headed by an entry give the natural chain unless they say otherwise; changes in a name come on top.
UniProt Q9UJ41, whole entry, looked up: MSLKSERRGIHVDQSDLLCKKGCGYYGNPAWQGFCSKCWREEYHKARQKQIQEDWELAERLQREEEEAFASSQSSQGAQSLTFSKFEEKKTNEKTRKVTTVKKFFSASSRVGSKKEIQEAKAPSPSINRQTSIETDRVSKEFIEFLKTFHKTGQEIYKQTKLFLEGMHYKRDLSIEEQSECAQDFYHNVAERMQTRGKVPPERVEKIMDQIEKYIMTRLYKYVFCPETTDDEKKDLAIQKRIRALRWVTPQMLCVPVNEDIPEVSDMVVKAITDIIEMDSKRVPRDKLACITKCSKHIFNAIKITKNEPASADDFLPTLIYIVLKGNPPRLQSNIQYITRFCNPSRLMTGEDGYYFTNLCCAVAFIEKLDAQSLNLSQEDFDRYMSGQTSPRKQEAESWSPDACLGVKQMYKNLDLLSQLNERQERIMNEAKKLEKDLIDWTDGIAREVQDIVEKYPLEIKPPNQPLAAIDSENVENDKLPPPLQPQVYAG
UniProt Q7Z7A4: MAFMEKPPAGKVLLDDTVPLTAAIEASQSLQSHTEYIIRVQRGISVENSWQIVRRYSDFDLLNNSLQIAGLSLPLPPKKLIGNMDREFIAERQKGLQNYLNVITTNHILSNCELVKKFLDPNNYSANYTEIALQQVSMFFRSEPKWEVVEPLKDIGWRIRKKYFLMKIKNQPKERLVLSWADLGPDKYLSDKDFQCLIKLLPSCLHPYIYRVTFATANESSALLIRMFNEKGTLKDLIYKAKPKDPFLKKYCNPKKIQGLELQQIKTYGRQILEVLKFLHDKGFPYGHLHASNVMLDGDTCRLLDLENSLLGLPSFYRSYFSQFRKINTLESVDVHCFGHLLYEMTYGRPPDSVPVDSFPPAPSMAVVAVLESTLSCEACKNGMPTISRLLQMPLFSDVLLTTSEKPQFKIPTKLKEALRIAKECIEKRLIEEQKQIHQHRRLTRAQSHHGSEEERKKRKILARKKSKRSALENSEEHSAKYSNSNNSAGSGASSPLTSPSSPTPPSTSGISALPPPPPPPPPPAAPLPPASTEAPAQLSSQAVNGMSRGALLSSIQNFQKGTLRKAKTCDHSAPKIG
UniProt Q8WU10: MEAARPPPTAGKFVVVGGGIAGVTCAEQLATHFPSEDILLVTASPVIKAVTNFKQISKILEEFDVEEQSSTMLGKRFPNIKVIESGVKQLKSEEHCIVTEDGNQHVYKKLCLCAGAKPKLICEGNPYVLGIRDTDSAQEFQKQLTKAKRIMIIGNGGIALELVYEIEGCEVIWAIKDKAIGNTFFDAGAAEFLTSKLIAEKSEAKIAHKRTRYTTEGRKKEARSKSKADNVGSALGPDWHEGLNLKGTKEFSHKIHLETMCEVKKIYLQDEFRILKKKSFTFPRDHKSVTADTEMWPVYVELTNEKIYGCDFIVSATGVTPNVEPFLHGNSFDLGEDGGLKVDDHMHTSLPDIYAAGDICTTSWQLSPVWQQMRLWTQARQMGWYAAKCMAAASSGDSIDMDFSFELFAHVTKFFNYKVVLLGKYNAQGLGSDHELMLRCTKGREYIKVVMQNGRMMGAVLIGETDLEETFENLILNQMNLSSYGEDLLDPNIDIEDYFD
UniProt P61018: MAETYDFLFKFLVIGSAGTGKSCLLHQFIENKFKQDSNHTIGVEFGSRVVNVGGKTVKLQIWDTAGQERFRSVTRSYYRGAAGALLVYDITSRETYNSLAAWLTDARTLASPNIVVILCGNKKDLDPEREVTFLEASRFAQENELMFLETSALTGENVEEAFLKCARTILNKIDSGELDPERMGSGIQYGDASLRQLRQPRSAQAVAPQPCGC
UniProt O14966: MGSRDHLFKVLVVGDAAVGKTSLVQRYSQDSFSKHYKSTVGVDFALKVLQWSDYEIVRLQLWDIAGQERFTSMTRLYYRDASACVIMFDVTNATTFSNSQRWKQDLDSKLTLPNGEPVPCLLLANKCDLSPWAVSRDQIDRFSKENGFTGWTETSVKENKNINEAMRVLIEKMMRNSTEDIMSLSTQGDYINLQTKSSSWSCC
UniProt O15315: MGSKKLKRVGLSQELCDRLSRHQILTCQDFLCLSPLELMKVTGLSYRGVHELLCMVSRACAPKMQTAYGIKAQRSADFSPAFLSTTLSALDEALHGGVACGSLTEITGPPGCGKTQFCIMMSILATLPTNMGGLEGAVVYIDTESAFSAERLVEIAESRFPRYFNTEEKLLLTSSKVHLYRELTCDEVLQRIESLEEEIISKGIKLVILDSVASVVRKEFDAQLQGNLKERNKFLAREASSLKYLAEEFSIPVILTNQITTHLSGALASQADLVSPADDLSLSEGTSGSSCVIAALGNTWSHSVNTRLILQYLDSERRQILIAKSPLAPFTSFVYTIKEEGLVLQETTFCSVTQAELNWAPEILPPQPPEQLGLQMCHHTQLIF
UniProt P62820, whole entry, looked up: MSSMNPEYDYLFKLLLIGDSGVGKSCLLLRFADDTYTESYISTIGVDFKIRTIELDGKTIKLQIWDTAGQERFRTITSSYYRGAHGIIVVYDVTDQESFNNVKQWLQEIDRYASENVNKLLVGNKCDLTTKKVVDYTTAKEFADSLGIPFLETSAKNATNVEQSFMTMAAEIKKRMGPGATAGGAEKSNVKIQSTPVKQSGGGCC
UniProt Q9BXR0: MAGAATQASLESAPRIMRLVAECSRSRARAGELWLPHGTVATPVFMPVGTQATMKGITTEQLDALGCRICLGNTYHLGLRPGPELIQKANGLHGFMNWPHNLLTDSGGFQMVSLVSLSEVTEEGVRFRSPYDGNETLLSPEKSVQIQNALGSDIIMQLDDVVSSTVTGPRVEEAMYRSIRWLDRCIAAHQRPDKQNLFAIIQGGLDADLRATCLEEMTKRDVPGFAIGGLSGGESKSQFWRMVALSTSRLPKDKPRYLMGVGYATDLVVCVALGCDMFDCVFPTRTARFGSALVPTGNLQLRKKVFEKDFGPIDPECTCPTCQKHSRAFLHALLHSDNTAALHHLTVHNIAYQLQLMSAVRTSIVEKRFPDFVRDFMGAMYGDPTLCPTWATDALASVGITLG
UniProt Q9Y3P9: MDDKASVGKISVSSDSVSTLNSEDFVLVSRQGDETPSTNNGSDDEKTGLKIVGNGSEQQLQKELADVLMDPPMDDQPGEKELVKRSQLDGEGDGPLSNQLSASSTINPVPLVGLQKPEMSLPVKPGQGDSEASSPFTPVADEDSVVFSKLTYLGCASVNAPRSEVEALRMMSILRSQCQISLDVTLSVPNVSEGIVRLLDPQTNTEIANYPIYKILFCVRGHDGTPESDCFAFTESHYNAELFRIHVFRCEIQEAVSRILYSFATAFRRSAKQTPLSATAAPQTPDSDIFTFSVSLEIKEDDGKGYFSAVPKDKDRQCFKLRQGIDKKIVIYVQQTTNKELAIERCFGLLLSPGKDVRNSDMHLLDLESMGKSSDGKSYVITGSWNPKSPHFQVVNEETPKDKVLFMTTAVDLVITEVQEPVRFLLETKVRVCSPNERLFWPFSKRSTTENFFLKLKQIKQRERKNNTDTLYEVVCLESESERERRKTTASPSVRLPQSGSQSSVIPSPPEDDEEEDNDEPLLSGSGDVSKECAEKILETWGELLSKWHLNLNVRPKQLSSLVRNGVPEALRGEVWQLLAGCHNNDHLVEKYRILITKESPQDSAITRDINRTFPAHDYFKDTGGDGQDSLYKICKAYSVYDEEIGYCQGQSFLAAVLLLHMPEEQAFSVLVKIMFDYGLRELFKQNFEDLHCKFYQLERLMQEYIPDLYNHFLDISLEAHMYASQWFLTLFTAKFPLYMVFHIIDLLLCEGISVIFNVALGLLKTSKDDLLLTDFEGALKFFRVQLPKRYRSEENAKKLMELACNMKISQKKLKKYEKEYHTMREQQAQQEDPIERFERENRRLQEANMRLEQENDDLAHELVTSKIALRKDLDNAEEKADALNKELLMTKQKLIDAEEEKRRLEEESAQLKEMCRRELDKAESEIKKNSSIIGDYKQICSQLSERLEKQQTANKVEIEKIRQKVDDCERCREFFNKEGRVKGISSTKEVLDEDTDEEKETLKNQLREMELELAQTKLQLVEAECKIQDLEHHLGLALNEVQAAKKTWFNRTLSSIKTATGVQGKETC
UniProt P51148: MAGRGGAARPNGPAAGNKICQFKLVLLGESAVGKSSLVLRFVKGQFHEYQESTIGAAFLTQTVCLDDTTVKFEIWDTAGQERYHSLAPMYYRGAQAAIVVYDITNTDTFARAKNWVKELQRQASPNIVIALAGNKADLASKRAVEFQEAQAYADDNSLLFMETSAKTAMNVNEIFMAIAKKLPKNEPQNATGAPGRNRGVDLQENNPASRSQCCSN
UniProt P52306: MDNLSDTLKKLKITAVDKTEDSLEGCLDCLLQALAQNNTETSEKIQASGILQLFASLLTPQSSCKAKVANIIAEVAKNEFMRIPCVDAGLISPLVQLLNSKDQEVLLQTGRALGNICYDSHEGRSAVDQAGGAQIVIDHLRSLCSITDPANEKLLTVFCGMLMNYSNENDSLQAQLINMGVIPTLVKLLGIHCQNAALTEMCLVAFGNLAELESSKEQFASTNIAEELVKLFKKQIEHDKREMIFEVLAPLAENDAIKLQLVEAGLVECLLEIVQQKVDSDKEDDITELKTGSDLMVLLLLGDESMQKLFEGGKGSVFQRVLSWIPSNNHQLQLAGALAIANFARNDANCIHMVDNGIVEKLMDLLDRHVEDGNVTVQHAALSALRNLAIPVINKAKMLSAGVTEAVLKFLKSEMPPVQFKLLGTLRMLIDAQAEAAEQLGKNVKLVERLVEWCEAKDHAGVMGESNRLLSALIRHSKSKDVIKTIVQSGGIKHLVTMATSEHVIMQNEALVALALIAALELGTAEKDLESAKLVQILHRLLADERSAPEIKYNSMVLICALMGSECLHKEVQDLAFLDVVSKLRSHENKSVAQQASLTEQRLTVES
UniProt Q53H96: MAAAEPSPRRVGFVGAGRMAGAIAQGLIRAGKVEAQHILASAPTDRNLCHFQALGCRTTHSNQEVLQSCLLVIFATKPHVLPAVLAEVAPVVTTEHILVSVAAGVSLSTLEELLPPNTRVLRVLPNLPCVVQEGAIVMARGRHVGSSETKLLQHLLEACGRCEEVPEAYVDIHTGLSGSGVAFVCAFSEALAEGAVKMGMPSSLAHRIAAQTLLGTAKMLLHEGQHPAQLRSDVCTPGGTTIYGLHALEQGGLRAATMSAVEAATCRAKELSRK
UniProt Q4G0T1: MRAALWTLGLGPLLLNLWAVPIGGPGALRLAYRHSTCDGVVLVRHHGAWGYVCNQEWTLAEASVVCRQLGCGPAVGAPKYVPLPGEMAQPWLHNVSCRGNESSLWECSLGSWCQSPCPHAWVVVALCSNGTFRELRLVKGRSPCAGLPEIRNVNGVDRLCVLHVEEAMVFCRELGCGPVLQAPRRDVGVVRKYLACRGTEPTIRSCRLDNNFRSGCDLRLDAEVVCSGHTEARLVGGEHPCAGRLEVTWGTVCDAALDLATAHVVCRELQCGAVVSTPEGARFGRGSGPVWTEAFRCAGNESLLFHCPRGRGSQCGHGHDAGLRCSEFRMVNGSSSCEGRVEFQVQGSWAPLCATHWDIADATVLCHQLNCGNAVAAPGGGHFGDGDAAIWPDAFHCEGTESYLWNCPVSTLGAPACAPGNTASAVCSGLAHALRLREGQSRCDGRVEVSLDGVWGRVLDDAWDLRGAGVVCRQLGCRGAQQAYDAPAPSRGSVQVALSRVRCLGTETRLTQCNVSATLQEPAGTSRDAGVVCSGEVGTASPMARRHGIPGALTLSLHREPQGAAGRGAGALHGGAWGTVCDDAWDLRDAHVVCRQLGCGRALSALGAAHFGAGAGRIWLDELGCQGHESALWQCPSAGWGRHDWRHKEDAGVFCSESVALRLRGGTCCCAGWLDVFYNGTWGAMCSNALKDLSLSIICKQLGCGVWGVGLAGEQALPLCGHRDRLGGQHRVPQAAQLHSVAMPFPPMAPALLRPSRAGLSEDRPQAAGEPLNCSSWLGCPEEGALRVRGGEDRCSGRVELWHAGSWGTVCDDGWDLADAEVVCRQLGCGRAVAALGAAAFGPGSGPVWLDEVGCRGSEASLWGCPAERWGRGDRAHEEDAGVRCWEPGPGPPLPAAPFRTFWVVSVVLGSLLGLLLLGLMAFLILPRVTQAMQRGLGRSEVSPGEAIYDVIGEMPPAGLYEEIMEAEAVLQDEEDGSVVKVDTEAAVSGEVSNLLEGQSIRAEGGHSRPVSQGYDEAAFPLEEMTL
UniProt P61106, whole entry, looked up: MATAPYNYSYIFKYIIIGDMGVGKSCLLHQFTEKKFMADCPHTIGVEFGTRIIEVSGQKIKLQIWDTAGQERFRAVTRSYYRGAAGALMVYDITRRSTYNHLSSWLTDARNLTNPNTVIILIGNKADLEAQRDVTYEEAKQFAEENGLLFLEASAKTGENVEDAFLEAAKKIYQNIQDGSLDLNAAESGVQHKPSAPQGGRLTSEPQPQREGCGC

Experiments:
Test in all cases: log2 fold change, soluble protein after heating vs DMSO (PISA); higher = thermal stabilisation; K562 lysate, 10 uM; active = over 0.2 and 3.5 SD of the protein, either way, in both replicates (recomputed)
[1] = compound: CN1CC[C@H](c2c(O)cc(O)c3c(=O)cc(-c4ccccc4Cl)oc23)[C@H](O)C1 [alvocidib]
Method in brief: (§1)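 Dounce homogenisation of K562 pellets in PBS pH 7.4 with 1 mM MgCl2 produced a crude extract, used at 1 mg/mL protein. Exposure to 10 μM compound lasted 30 min, and aliquots were then heated for 3 min across 48°C-58°C, pooled and brought to 0.5% NP-40 at 4°C. The supernatant after 21,000xg for 90 min was quantified by TMTpro 16plex LC-MS/MS with channel sums equalised. Duplicate values are given as log-two fold change in thermal stability relative to solvent controls.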

[2] = compound: CN1CCc2c(c3ccccc3n2Cc2ccc(C(=O)NO)cc2)C1 [Tubastatin A]
Method in brief: as §1

[3] = compound: CNC(=O)C1=CC=CC=C1NC2=NC(=NC=C2Cl)NC3=C(C=C(C=C3)N4CCOCC4)OC
Method in brief: as §1

[4] = compound: CNC(=O)c1ccc(Nc2ncc(C(F)(F)F)c(NCc3nccnc3N(C)S(C)(=O)=O)n2)cc1 [defactinib]
Method in brief: as §1

[5] = compound: CNc1nc(-c2ccc3c(N)n[nH]c3c2)cc(N2C[C@@H](C(=O)NC3CCCCC3)CC[C@H]2C)n1
Method in brief: as §1

[6] = compound: COC(=O)N[C@@H](C)CNc1nccc(-c2cn(C(C)C)nc2-c2cc(Cl)cc(NS(C)(=O)=O)c2F)n1 [encorafenib]
Method in brief: as §1

[7] = compound: COC(=O)[C@H](CCSC)NC(=O)C1=C(C=C(C=C1)NC[C@H](CS)N)C2=CC=CC=C2
Method in brief: as §1

[8] = compound: COc1cc(Nc2ncc3c(n2)-c2ccc(Cl)cc2C(c2c(F)cccc2OC)=NC3)ccc1C(=O)O [alisertib]
Method in brief: as §1

[9] = compound: COc1cc2nc(-c3cc(F)ccc3O)nc(N[C@@H]3CNC[C@H]3C(C)(C)O)c2cc1OC
Method in brief: as §1

[10] = compound: COc1cc2ncnc(Nc3ccc(F)c(Cl)c3)c2cc1OCCCN1CCOCC1 [gefitinib]
Method in brief: as §1

[11] = compound: CS(=O)(=O)CCNCc1ccc(-c2ccc3ncnc(Nc4ccc(OCc5cccc(F)c5)c(Cl)c4)c3c2)o1 [lapatinib]
Method in brief: as §1

[12] = compound: CS(=O)(=O)N1CCN(Cc2cc3nc(-c4cccc5[nH]ncc45)nc(N4CCOCC4)c3s2)CC1 [pictilisib]
Method in brief: as §1

[13] = compound: C[C@@H](Oc1cc(-c2cnn(C3CCNCC3)c2)cnc1N)c1c(Cl)ccc(F)c1Cl [crizotinib]
Method in brief: as §1

[14] = compound: C[C@H](C1=CC=C(C=C1)C(=O)NC2=C3C=CNC3=NC=C2)N
Method in brief: as §1

[15] = compound: C[C@H](Nc1ncnc2nc[nH]c12)c1cc2cccc(Cl)c2c(=O)n1-c1ccccc1 [duvelisib]
Method in brief: as §1

[16] = compound: Cc1cc(Nc2cc(CN3CCOCC3)c3nc(C)c(Cc4ccc(Cl)cc4F)n3n2)n[nH]1 [gandotinib]
Method in brief: as §1

[17] = compound: Cc1cc(Nc2cc(N3CCN(C)CC3)nc(Sc3ccc(NC(=O)C4CC4)cc3)n2)n[nH]1 [tozasertib]
Method in brief: as §1

[18] = compound: Cc1ccc(-n2nc(C(C)(C)C)cc2NC(=O)Nc2ccc(OCCN3CCOCC3)c3ccccc23)cc1 [doramapimod]
Method in brief: as §1

[19] = compound: Cc1ccc(NC(=O)c2ccc(CN3CC[C@H](N(C)C)C3)c(C(F)(F)F)c2)cc1Nc1nccc(-c2cncnc2)n1 [bafetinib]
Method in brief: as §1

[20] = compound: Cc1cccc(CC(=O)N2CCc3c2ccc(-c2cn(C)c4ncnc(N)c24)c3F)n1
Method in brief: as §1

Measured: log2 fold change

RABGEF1 isoform 3 (UniProt Q9UJ41)
inactive: [1] 0.002 | [2] 0.023 | [3] -0.029 | [4] -0.001 | [5] -0.069 | [6] -0.018 | [7] -0.037 | [8] -0.018 | [9] -0.007 | [10] -0.027 | [11] 0.016 | [12] 0.011 | [13] 0.006 | [14] -0.028 | [15] -0.001 | [16] -0.008 | [17] 0.028 | [18] 0.008 | [19] -0.04 | [20] 0.004

PXK (UniProt Q7Z7A4)
inactive: [1] 0.034 | [2] -0.054 | [3] 0.016 | [4] 0.018 | [5] 0.012 | [6] -0.002 | [7] 0.006 | [8] 0.047 | [9] 0.015 | [10] 0.011 | [11] -0.046 | [12] -0.018 | [13] 0.001 | [14] -0.06 | [15] -0.005 | [16] 0.047 | [17] -0.036 | [18] 0.025 | [19] -0.034 | [20] 0.014

PYROXD1 (UniProt Q8WU10)
inactive: [1] 0.139 | [2] -0.101 | [3] -0.057 | [4] 0.085 | [5] -0.001 | [6] 0.04 | [7] 0.007 | [8] -0.054 | [9] -0.064 | [10] 0.058 | [11] -0.129 | [12] 0.005 | [13] 0.065 | [14] -0.088 | [15] -0.026 | [16] -0.214 | [17] 0.002 | [18] -0.011 | [19] 0.014 | [20] 0.016

RAN (UniProt P62826)
inactive: [1] 0.019 | [2] 0.052 | [3] -0.015 | [4] -0.016 | [5] -0.031 | [6] -0.045 | [7] -0.035 | [8] 0.011 | [9] 0.005 | [10] 0.003 | [11] -0.027 | [12] 0.025 | [13] 0.018 | [14] 0.041 | [15] 0.015 | [16] -0.039 | [17] 0.023 | [18] -0.028 | [19] 0.122 | [20] -0.099

RAB4B isoform 2 (UniProt P61018)
inactive: [1] -0.038 | [2] 0.015 | [3] -0.025 | [4] -0.04 | [5] -0.042 | [6] 0.05 | [7] -0.01 | [8] 0.042 | [9] 0.071 | [10] 0.03 | [11] -0.057 | [12] -0.017 | [13] 0.052 | [14] -0.033 | [15] 0.02 | [16] -0.036 | [17] 0.05 | [18] 0.001 | [19] 0.007 | [20] 0.018

RAB29 (UniProt O14966)
inactive: [1] -0.104 | [2] -0.172 | [3] 0.096 | [5] 0.081 | [14] 0.041 | [15] 0.048 | [16] -0.084 | [20] 0.012

RAD51B (UniProt O15315)
inactive: [1] 0.127 | [2] 0.05 | [3] -0.03 | [4] -0.064 | [5] -0.052 | [6] -0.096 | [7] 0.079 | [8] -0.035 | [10] -0.071 | [12] -0.188 | [13] -0.126 | [14] 0.009 | [15] 0.006 | [16] 0.014 | [17] -0.017 | [18] -0.117 | [19] -0.072 | [20] 0.126

RAB1A (UniProt P62820)
inactive: [1] -0.001 | [2] 0.01 | [3] -0.002 | [4] 0 | [5] -0.033 | [6] 0.05 | [7] -0.044 | [8] 0.04 | [9] 0.016 | [10] 0.014 | [11] -0.003 | [12] -0.033 | [13] 0.034 | [14] 0.032 | [15] 0 | [16] -0.038 | [17] 0.017 | [18] 0.012 | [19] 0.018 | [20] -0.01

QTRT1 (UniProt Q9BXR0)
inactive: [1] -0.027 | [2] 0.005 | [3] 0.018 | [4] -0.014 | [5] 0.048 | [6] -0.041 | [7] 0.025 | [8] -0.007 | [9] -0.021 | [10] -0.053 | [11] -0.009 | [12] 0.011 | [13] -0.021 | [14] -0.088 | [15] 0.016 | [16] 0.031 | [17] -0.028 | [18] 0.038 | [19] -0.005 | [20] 0.05

RABGAP1 (UniProt Q9Y3P9)
inactive: [1] -0.009 | [2] -0.032 | [3] 0.014 | [4] 0.004 | [5] 0 | [6] 0.006 | [7] -0.01 | [8] -0.023 | [9] 0.013 | [10] -0.026 | [11] 0.012 | [12] -0.012 | [13] 0.002 | [14] 0.003 | [15] 0.038 | [16] -0.03 | [17] 0.004 | [18] -0.002 | [19] -0.001 | [20] -0.018

2 entries drawn at random from the list so far, as already listed:
RAB1A (UniProt P62820)
inactive: [1] -0.001 | [2] 0.01 | [3] -0.002 | [4] 0 | [5] -0.033 | [6] 0.05 | [7] -0.044 | [8] 0.04 | [9] 0.016 | [10] 0.014 | [11] -0.003 | [12] -0.033 | [13] 0.034 | [14] 0.032 | [15] 0 | [16] -0.038 | [17] 0.017 | [18] 0.012 | [19] 0.018 | [20] -0.01

RABGAP1 (UniProt Q9Y3P9)
inactive: [1] -0.009 | [2] -0.032 | [3] 0.014 | [4] 0.004 | [5] 0 | [6] 0.006 | [7] -0.01 | [8] -0.023 | [9] 0.013 | [10] -0.026 | [11] 0.012 | [12] -0.012 | [13] 0.002 | [14] 0.003 | [15] 0.038 | [16] -0.03 | [17] 0.004 | [18] -0.002 | [19] -0.001 | [20] -0.018

Next entries.

RAB5C isoform 2 (UniProt P51148)
inactive: [1] -0.034 | [2] 0.056 | [3] -0.01 | [4] 0.014 | [5] 0.004 | [6] -0.002 | [7] -0.103 | [8] 0.016 | [9] 0.03 | [10] -0.005 | [11] -0.006 | [12] -0.062 | [13] 0.011 | [14] -0.079 | [15] 0.012 | [16] 0.012 | [17] -0.019 | [18] -0.028 | [19] 0.021 | [20] 0.043

RAP1GDS1 isoform 5 (UniProt P52306)
inactive: [1] -0.01 | [2] -0.037 | [3] 0.018 | [4] -0.061 | [5] -0.018 | [6] 0.019 | [7] 0.013 | [8] 0.031 | [9] -0.009 | [10] 0.062 | [11] 0.007 | [12] -0.019 | [13] 0.017 | [14] -0.073 | [15] 0.02 | [16] -0.04 | [17] 0.012 | [18] 0.01 | [19] 0.014 | [20] 0.04

R3HCC1L, A0A384DVK4
inactive: [1] -0.047 | [2] -0.067 | [3] 0.04 | [4] 0.032 | [5] -0.012 | [6] 0.074 | [7] 0 | [8] 0.014 | [9] -0.041 | [10] 0.007 | [11] 0.1 | [12] -0.069 | [13] -0.007 | [14] -0.118 | [15] 0.025 | [16] 0.03 | [17] 0.068 | [18] -0.02 | [19] -0.038 | [20] 0.026

PYCR3 (UniProt Q53H96)
inactive: [1] -0.048 | [2] -0.006 | [3] -0.015 | [4] -0.023 | [5] 0.049 | [6] 0.025 | [7] -0.124 | [8] -0.084 | [9] 0.011 | [10] -0.014 | [11] -0.027 | [12] -0.071 | [13] -0.027 | [14] 0.021 | [15] 0.021 | [16] 0.028 | [17] 0.011 | [18] 0.042 | [19] -0.023 | [20] -0.019

NA (UniProt Q4G0T1)
inactive: [1] -0.132 | [2] -0.272 | [3] -0.115 | [5] -0.062 | [13] 0.023 | [14] -0.044 | [15] 0.035 | [16] -0.015 | [18] 0.042 | [20] 0.034

RAB28 (UniProt P51157)
inactive: [1] -0.024 | [2] -0.084 | [3] 0 | [4] -0.019 | [5] -0.132 | [6] 0.024 | [7] 0.092 | [9] 0.04 | [11] -0.036 | [12] -0.101 | [13] -0.021 | [14] -0.018 | [15] -0.093 | [16] -0.032 | [17] 0.029 | [18] -0.049 | [19] 0.042 | [20] 0.146

RAB14 (UniProt P61106)
inactive: [1] -0.032 | [2] 0.071 | [3] -0.013 | [4] 0.001 | [5] 0.046 | [6] 0.015 | [7] -0.124 | [8] -0.018 | [9] 0.048 | [10] -0.017 | [11] -0.041 | [12] -0.039 | [13] -0.035 | [14] -0.113 | [15] -0.02 | [16] 0.04 | [17] 0.015 | [18] -0.029 | [19] -0.038 | [20] 0.052
